# Results as given in the supplement of paper PMC8728848.
# Some of the results follow.
# B1: Pwp7 (Candida glabrata) (protein)
# chain: MGSSHHHHHHSSGLVPRGSHMASKNPVDFPNLCQYPNLDGAVAGFDTEIYNADPSILINFSLWPILQFPKEWHKTIGRAITTQTNFKLPASDTTLFGVSIPTQNILIEFRGYFIPPKSGTYTFALYLTDDGSAMFLGNDAAFPCGNITSWSNPTNDQVSVSDYDPKKKTLTVYMVAGVAYPLRIAYYNREKGGSLTASFVDPDGLTHSDWNGYIWTLPSCDNCKYS
# Experiments:
# Assay in all cases: glycan array binding signal (z-score within array); higher = stronger binding
# Conditions in all cases: glycan notation: IUPAC condensed, linker removed
# [1] = biological target: Fuc(a1-2)Gal(b1-4)GlcNAc(b1-3)Gal(b1-4)GlcNAc(b1-3)Gal(b1-4)GlcNAc
# Outline: (§1)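 From the Consortium for Functional Glycomics database, 3228 arrays were curated, keeping only those whose protein sequence was available. Binding is given as a within-array Z-score averaged across arrays sharing a protein sequence and across linkers. Negative Z-scores can be read as non-binding.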
# [2] = biological target: Fuc(a1-2)Gal(b1-4)GlcNAc(b1-3)GalNAc
# Outline: as §1
# [3] = biological target: Fuc(a1-2)Gal(b1-4)GlcNAc(b1-3)[Fuc(a1-2)Gal(b1-4)GlcNAc(b1-6)]GalNAc
# Outline: as §1
# [4] = biological target: Fuc(a1-2)Gal(b1-4)GlcNAc(b1-3)[Fuc(a1-3)[Gal(b1-4)]GlcNAc(b1-6)]Gal(b1-4)Glc
# Outline: as §1
# [5] = biological target: Fuc(a1-2)Gal(b1-4)GlcNAc(b1-6)GalNAc
# Outline: as §1
# [6] = biological target: Fuc(a1-2)Gal(b1-4)GlcNAc6S
# Outline: as §1
# [7] = biological target: Fuc(a1-2)Gal(b1-4)[Fuc(a1-3)]GlcNAc
# Outline: as §1
# [8] = biological target: Fuc(a1-2)Gal(b1-4)[Fuc(a1-3)]GlcNAc(b1-2)Man(a1-3)[Fuc(a1-2)Gal(b1-4)[Fuc(a1-3)]GlcNAc(b1-2)Man(a1-6)]Man(b1-4)GlcNAc(b1-4)[Fuc(a1-6)]GlcNAc
# Outline: as §1
# [9] = biological target: Fuc(a1-2)Gal(b1-4)[Fuc(a1-3)]GlcNAc(b1-2)[Fuc(a1-2)Gal(b1-4)[Fuc(a1-3)]GlcNAc(b1-4)]Man(a1-3)[Fuc(a1-2)Gal(b1-4)[Fuc(a1-3)]GlcNAc(b1-2)Man(a1-6)]Man(b1-4)GlcNAc(b1-4)GlcNAc
# Outline: as §1
# [10] = biological target: Fuc(a1-2)Gal(b1-4)[Fuc(a1-3)]GlcNAc(b1-3)Gal(b1-4)[Fuc(a1-3)]GlcNAc
# Outline: as §1
# [11] = biological target: Fuc(a1-2)Gal(b1-4)[Fuc(a1-3)]GlcNAc(b1-3)Gal(b1-4)[Fuc(a1-3)]GlcNAc(b1-3)Gal(b1-4)[Fuc(a1-3)]GlcNAc
# Outline: as §1
# [12] = biological target: Fuc(a1-2)Gal(b1-4)[Fuc(a1-3)]GlcNAc(b1-3)GalNAc
# Outline: as §1
# [13] = biological target: Fuc(a1-2)Gal(b1-4)[Fuc(a1-3)]GlcNAc(b1-3)[Neu5Ac(a2-6)Gal(b1-4)GlcNAc(b1-6)]Gal(b1-4)Glc
# Outline: as §1
# [14] = biological target: Fuc(a1-2)Gal3S(b1-4)GlcNAc
# Outline: as §1
# [15] = biological target: Fuc(a1-2)Gal6S(b1-3)GlcNAc
# Outline: as §1
# [16] = biological target: Fuc(a1-2)Gal6S(b1-3)GlcNAc6S
# Outline: as §1
# Fuc(a1-2)Gal6S(b1-4)Glc = biological target: Fuc(a1-2)Gal6S(b1-4)Glc
# Outline: as §1
# [17] = biological target: Fuc(a1-2)Gal6S(b1-4)Glc6S
# Outline: as §1
# Fuc(a1-2)[Gal(a1-3)]Gal = biological target: Fuc(a1-2)[Gal(a1-3)]Gal
# Outline: as §1
# [18] = biological target: Fuc(a1-2)[Gal(a1-3)]Gal(b1-3)GalNAc
# Outline: as §1
# [19] = biological target: Fuc(a1-2)[Gal(a1-3)]Gal(b1-3)GalNAc(b1-3)Gal(a1-4)Gal(b1-4)Glc
# Outline: as §1
# [20] = biological target: Fuc(a1-2)[Gal(a1-3)]Gal(b1-3)GlcNAc
# Outline: as §1
# [21] = biological target: Fuc(a1-2)[Gal(a1-3)]Gal(b1-3)GlcNAc(b1-2)Man(a1-3)[Fuc(a1-2)[Gal(a1-3)]Gal(b1-3)GlcNAc(b1-2)Man(a1-6)]Man(b1-4)GlcNAc(b1-4)GlcNAc
# Outline: as §1
# [22] = biological target: Fuc(a1-2)[Gal(a1-3)]Gal(b1-3)GlcNAc(b1-2)Man(a1-3)[Fuc(a1-2)[Gal(a1-3)]Gal(b1-3)GlcNAc(b1-2)Man(a1-6)]Man(b1-4)GlcNAc(b1-4)[Fuc(a1-6)]GlcNAc
# Outline: as §1
# [23] = biological target: Fuc(a1-2)[Gal(a1-3)]Gal(b1-3)GlcNAc(b1-3)GalNAc
# Outline: as §1
# [24] = biological target: Fuc(a1-2)[Gal(a1-3)]Gal(b1-3)GlcNAc(b1-6)GalNAc
# Outline: as §1
# [25] = biological target: Fuc(a1-2)[Gal(a1-3)]Gal(b1-4)Glc
# Outline: as §1
# [26] = biological target: Fuc(a1-2)[Gal(a1-3)]Gal(b1-4)GlcNAc
# Outline: as §1
# [27] = biological target: Fuc(a1-2)[Gal(a1-3)]Gal(b1-4)GlcNAc(b1-2)Man
# Outline: as §1
# [28] = biological target: Fuc(a1-2)[Gal(a1-3)]Gal(b1-4)GlcNAc(b1-2)Man(a1-3)[Fuc(a1-2)[Gal(a1-3)]Gal(b1-4)GlcNAc(b1-2)Man(a1-6)]Man(b1-4)GlcNAc(b1-4)GlcNAc
# Outline: as §1
# [29] = biological target: Fuc(a1-2)[Gal(a1-3)]Gal(b1-4)GlcNAc(b1-2)Man(a1-3)[Fuc(a1-2)[Gal(a1-3)]Gal(b1-4)GlcNAc(b1-2)Man(a1-6)]Man(b1-4)GlcNAc(b1-4)[Fuc(a1-6)]GlcNAc
# Outline: as §1
# [30] = biological target: Fuc(a1-2)[Gal(a1-3)]Gal(b1-4)GlcNAc(b1-3)GalNAc
# Outline: as §1
# [31] = biological target: Fuc(a1-2)[Gal(a1-3)]Gal(b1-4)GlcNAc(b1-3)[Fuc(a1-2)[Gal(a1-3)]Gal(b1-4)GlcNAc(b1-6)]GalNAc
# Outline: as §1
# [32] = biological target: Fuc(a1-2)[Gal(a1-3)]Gal(b1-4)GlcNAc(b1-6)GalNAc
# Outline: as §1
# [33] = biological target: Fuc(a1-2)[Gal(a1-3)]Gal(b1-4)[Fuc(a1-3)]Glc
# Outline: as §1
# [34] = biological target: Fuc(a1-2)[Gal(a1-3)]Gal(b1-4)[Fuc(a1-3)]GlcNAc
# Outline: as §1
# [35] = biological target: Fuc(a1-2)[Gal(a1-3)]Gal(b1-4)[Fuc(a1-3)]GlcNAc(b1-3)GalNAc
# Outline: as §1
# [36] = biological target: Fuc(a1-2)[Gal(a1-4)]Gal(b1-4)GlcNAc
# Outline: as §1
# [37] = biological target: Fuc(a1-2)[GalNAc(a1-3)]Gal
# Outline: as §1
# [38] = biological target: Fuc(a1-2)[GalNAc(a1-3)]Gal(b1-3)GalNAc(a1-3)[Fuc(a1-2)]Gal(b1-4)GlcNAc
# Outline: as §1
# [39] = biological target: Fuc(a1-2)[GalNAc(a1-3)]Gal(b1-3)GalNAc(b1-3)Gal(a1-4)Gal(b1-4)Glc
# Outline: as §1
# [40] = biological target: Fuc(a1-2)[GalNAc(a1-3)]Gal(b1-3)GlcNAc
# Outline: as §1
# [41] = biological target: Fuc(a1-2)[GalNAc(a1-3)]Gal(b1-3)GlcNAc(b1-2)Man(a1-3)[Fuc(a1-2)[GalNAc(a1-3)]Gal(b1-3)GlcNAc(b1-2)Man(a1-6)]Man(b1-4)GlcNAc(b1-4)GlcNAc
# Outline: as §1
# [42] = biological target: Fuc(a1-2)[GalNAc(a1-3)]Gal(b1-3)GlcNAc(b1-2)Man(a1-3)[Fuc(a1-2)[GalNAc(a1-3)]Gal(b1-3)GlcNAc(b1-2)Man(a1-6)]Man(b1-4)GlcNAc(b1-4)[Fuc(a1-6)]GlcNAc
# Outline: as §1
# [43] = biological target: Fuc(a1-2)[GalNAc(a1-3)]Gal(b1-3)GlcNAc(b1-3)GalNAc
# Outline: as §1
binder,measurement,setting,value
B1,glycan array binding signal (z-score),[1],-0.218
same,glycan array binding signal (z-score),[2],0.314
same,glycan array binding signal (z-score),[3],0.452
same,glycan array binding signal (z-score),[4],-0.579
same,glycan array binding signal (z-score),[5],0.714
same,glycan array binding signal (z-score),[6],-0.996
same,glycan array binding signal (z-score),[7],-1.13
same,glycan array binding signal (z-score),[8],0.615
same,glycan array binding signal (z-score),[9],-0.121
same,glycan array binding signal (z-score),[10],-0.47
same,glycan array binding signal (z-score),[11],-0.375
same,glycan array binding signal (z-score),[12],0.409
same,glycan array binding signal (z-score),[13],-0.059
same,glycan array binding signal (z-score),[14],-0.318
same,glycan array binding signal (z-score),[15],-0.966
same,glycan array binding signal (z-score),[16],-0.446
same,glycan array binding signal (z-score),Fuc(a1-2)Gal6S(b1-4)Glc,-0.508
same,glycan array binding signal (z-score),[17],-0.139
same,glycan array binding signal (z-score),Fuc(a1-2)[Gal(a1-3)]Gal,-0.131
same,glycan array binding signal (z-score),[18],-0.409
same,glycan array binding signal (z-score),[19],1.17
same,glycan array binding signal (z-score),[20],-0.834
same,glycan array binding signal (z-score),[21],0.472
same,glycan array binding signal (z-score),[22],1.13
same,glycan array binding signal (z-score),[23],-0.264
same,glycan array binding signal (z-score),[24],0.673
same,glycan array binding signal (z-score),[25],-0.515
same,glycan array binding signal (z-score),[26],-0.174
same,glycan array binding signal (z-score),[27],0.021
same,glycan array binding signal (z-score),[28],-0.802
same,glycan array binding signal (z-score),[29],0.728
same,glycan array binding signal (z-score),[30],0.048
same,glycan array binding signal (z-score),[31],0.334
same,glycan array binding signal (z-score),[32],0.537
same,glycan array binding signal (z-score),[33],-0.823
same,glycan array binding signal (z-score),[34],-0.054
same,glycan array binding signal (z-score),[35],-0.319
same,glycan array binding signal (z-score),[36],-0.779
same,glycan array binding signal (z-score),[37],-1.05
same,glycan array binding signal (z-score),[38],-0.476
same,glycan array binding signal (z-score),[39],0.982
same,glycan array binding signal (z-score),[40],-0.796
same,glycan array binding signal (z-score),[41],0.965
same,glycan array binding signal (z-score),[42],-0.65
same,glycan array binding signal (z-score),[43],1.56

# Some of the entries so far, as tab-separated lines:
binder	measurement	setting	value
B1	glycan array binding signal (z-score)	[20]	-0.834
same	glycan array binding signal (z-score)	[29]	0.728
same	glycan array binding signal (z-score)	[36]	-0.779
